# Among all 340,000 compounds or so, about 6,200 (1.8%) were called active. Inconclusive results, whose numbers are uncertain, are shown with a selection of clear calls. The call rests on the fitted dose curve; in most records, active means well fitted activation curve with a large enough effect; inconclusive means small, poorly fitted or top-dose-only effect; inactive means no such curve, though single readings can be large or run the other way. A potency beside an inconclusive call is a rough fit, not a confirmed value.
# Assay: A quantitative high throughput screen for small molecules that induce DNA re-replication in SW480 colon adenocarcinoma cells. Further: nearly all actives have a fitted effect of over 55% in size. On re-replication activation: % of control where 0% means no effect.
# Conditions: Hoechst DNA content imaging, 48 h; re-replication activation: at 46.1 µM (top of the series) unless noted
# Description: H Molecular Libraries Probe Production Network [MLPCN] NIH Chemical Genomics Center [NCGC] MLPCN Grant: Fast Track K99 CA136555 Assay Provider: Melvin DePamphilis, NICHD, NIH Assay Overview Eukaryotic cells normally restrict genome duplication to once per cell division. When this process is aberrant, DNA re-replication occurs when cells reinitiate DNA replication before the first round of replication is complete. DNA re-replication induces the DNA damage response, arrests cell proliferation, and triggers apoptosis. The cell cycle components cyclin A, Cdt-1, Cdc6 and geminin are critical regulators of this process and their misregulation results in DNA re-replication in normal and cancer cells. To identify compounds that induce re-replication in normal cells, an image-based assay was used to measure DNA content of nuclei, as detected by the fluorescent DNA binding dye, Hoechst. Cell nuclei were imaged by a fluorescence scanning plate imager and compounds that induce DNA re-replication were identified by the increase of nuclei with elevated fluorescence intensity
# For screening, 250 cells in 5 uL/well were dispensed into black clear 1536-well plates (Aurora) using a solenoid-based dispenser. Following transfer of 23 nL compound or DMSO vehicle by a pin tool, the plates were incubated 48 hr at 37 C and 5% CO2. After addition of 1 uL/well Hoescht stain, the plates were incubated 40 min at 37 C, 5% CO2 and total intensity of fluorescent objects (nuclei) were enumerated by an Acumen Explorer Ex3 (TTP LabTech) fluorescence scanning plate imager (405 nm excitation, 500-530 nm emission). Keywords: NIH Roadmap, MLPCN, MLI, MLSMR, qHTS, NCGC, DNA replication, cancer
# Potency means the concentration at half of the fitted maximal effect.
Compound,Potency,re-replication activation
CCOc1ncccc1C(=O)OCc1ccc(C(=O)OC)cc1,active: 7.31 µM,
Cc1c(Br)c(C(F)(F)F)nn1CC(=O)N(C)C1CCCCC1,"inconclusive: 0.231 µM [activator, full curve, poor fit]",
CCOC(=O)c1c(C)[nH]c(C)c1C(=O)COC(=O)/C=C/c1cccc(C(F)(F)F)c1,"inconclusive: 18.4 µM [activator, partial curve, poor fit]",
CCOC(=O)C1(C)/C(=N/Nc2ccccc2OC)C(=O)C(=O)N1c1ccccc1 (centres undefined),"inconclusive: 18.4 µM [activator, single point]",
Cn1nc(-c2ccccc2)cc1NC(=O)Nc1ccccc1F,"inconclusive: 29.1 µM [activator, single point]",
CCCCN(CCCC)CCCNC(=O)C1CC(c2ccc(C(F)(F)F)cc2)=NO1 (centres undefined),inactive,
COc1ccc(C(=O)/C=C/C(=O)N(Cc2ccc(F)cc2)C(C(=O)NC2CCCCC2)c2ccncc2)c(O)c1 (centres undefined),"inconclusive: 14.6 µM [activator, partial curve, poor fit]",
CCN(CC)C(=O)Cn1cc(C(=O)C2CC2)c2ccccc21,inactive,
O=C(c1ccccc1)c1cc([N+](=O)[O-])ccc1N1CCOCC1,"inconclusive: 2.59 µM [activator, full curve, poor fit]",
CCCC(=O)Nc1nc2ccc(NC(=O)c3c(F)c(F)c(OC)c(F)c3F)cc2s1,"inconclusive: 0.58 µM [activator, full curve, poor fit]",
O=C(NCc1ccccc1)/C(NC(=O)c1ccccc1)=C(/Sc1ccccn1)c1ccccc1,inactive,
COc1cc(C(=S)N2CCOCC2)ccc1OC(=O)c1ccccc1C,active: 18.4 µM,
O=C(O)C(Cc1c[nH]c2ccccc12)NS(=O)(=O)c1ccc(Br)cc1 (centres undefined),"inconclusive: 1.58 µM [activator, partial curve, poor fit]",
Cc1ccc(C(=O)N/N=C/c2ccc([N+](=O)[O-])s2)cc1,"inconclusive: 5.17 µM [activator, single point]",
COc1ccc(C(CNC(=O)c2ccc(C)c(S(=O)(=O)Nc3ccccc3OC)c2)N2CCCC2)cc1 (centres undefined),inactive,
COCCNC(=O)Cc1c(C)c2c(cc(C)c3c(C)coc32)oc1=O,inactive,
CCOc1ccc(NC(=O)/C=C/c2ccccc2)c([N+](=O)[O-])c1,"inconclusive: 23.1 µM [activator, partial curve, poor fit]",
CCOc1ccc(CNC(=O)c2ccc(Sc3ccc(Cl)cc3)c(NC(C)=O)c2)cc1,inactive,
O=C(CCl)N(CCCNC(=O)C(F)(F)F)c1ccc([N+](=O)[O-])cc1,"inconclusive: 0.731 µM [activator, partial curve, poor fit]",
CC(=O)OC(C(=O)NC1CCCCC1)c1ccc(C#N)cc1 (centres undefined),inactive,
O=C(CN1CCC(C(=O)c2ccc3c(c2)OCCO3)CC1)Nc1ccccc1F,"inconclusive: 0.0651 µM [activator, partial curve, poor fit]",
CCC(c1nnnn1Cc1ccco1)N(Cc1cc2cc(C)cc(C)c2[nH]c1=O)CC1CCCO1 (centres undefined),"inconclusive: 18.4 µM [activator, single point]",
COc1ccc(Cl)cc1-n1c(C)cc(C(=O)OCC(=O)N2CC(=O)Nc3ccccc32)c1C,"inconclusive: 8.2 µM [activator, partial curve, poor fit]",

# Two of these compounds, reformatted.
Compound	Potency	re-replication activation
COc1ccc(C(CNC(=O)c2ccc(C)c(S(=O)(=O)Nc3ccccc3OC)c2)N2CCCC2)cc1 (centres undefined)	inactive	
COc1ccc(Cl)cc1-n1c(C)cc(C(=O)OCC(=O)N2CC(=O)Nc3ccccc32)c1C	inconclusive: 8.2 µM [activator, partial curve, poor fit]	

# Additional results

Compound,Potency,re-replication activation
CC(C)(C)c1ccccc1OCCOCCNCc1ccccc1,inactive,
CCCCOc1ccc(C2C(=O)N(C3CCCCC3)CC(=O)N2CC2CCCO2)cc1 (centres undefined),"inconclusive: 31.6 µM [activator, partial curve, poor fit]",
COC(=O)[C@@]12CCCN1[C@H](c1ccc(-c3ccc(OC)cc3)cc1)[C@@H]1C(=O)N(C)C(=O)[C@@H]12,"inconclusive: 2.31 µM [activator, partial curve, poor fit]",
CCOc1cc(CNS(=O)(=O)c2ccc3c(c2)CC(=O)N3C)cc(OCC)c1OCC,"inconclusive: 3.66 µM [activator, single point]",
CCCCCCn1cc(C(=O)OCC)c(=O)c2cc(F)c(F)cc21,inactive,
Cc1ccc(CCNC(=O)c2coc3nc4ccccc4nc23)cc1,"inconclusive: 29.1 µM [activator, partial curve, poor fit]",
O=C(Nc1nc2nc(-c3ccccc3)cc(-c3ccccc3)n2n1)c1ccco1,inactive,
c1ccc2[nH]c(-c3cscn3)nc2c1,inactive,
COc1ccc(CNC(=S)NCc2ccc(Cl)cc2)cc1OC,inactive,
COc1cc(OC)c(OC)cc1CNC(=O)c1ccc(S(=O)(=O)N2CCCCC2)cc1,inactive,
Cc1ccc(S(=O)(=O)N(C)C)cc1-n1c(SCC(=O)N(C)C)nc2ccccc2c1=O,"inconclusive: 5.8 µM [activator, single point]",
O=C(COc1ccccc1Cl)N1CCc2ccccc21,inactive,
CCOC(=O)c1c(NC(=O)COC(=O)c2ccc(C)s2)sc2c1CC(C)(C)NC2(C)C,"inconclusive: 29.1 µM [activator, single point]",
CCOC(=O)c1sc(NC(=O)C2CCC2)cc1C,"inconclusive: 1.3 µM [activator, full curve, poor fit]",
OC[C@@H](O)[C@@H](O[C@@H]1O[C@H](CO)[C@H](O)[C@H](O)[C@H]1O)[C@H](O)[C@@H](O)CO,inactive,
Cn1cc([N+](=O)[O-])c(C(=O)N/N=C/c2cc3c(cc2Br)OCO3)n1,"inconclusive: 29.1 µM [activator, single point]",
CN(CC(=O)N1CC=C(c2ccccc2)CC1)S(=O)(=O)c1ccc2c(c1)c(=O)n(C)c(=O)n2C,inactive,
COc1cc(C(=O)NCC(=O)N/N=C/c2ccc(-c3ccc([N+](=O)[O-])cc3)o2)cc(OC)c1OC,"inconclusive: 1.84 µM [activator, full curve, poor fit]",
O=C(COC(=O)c1ccc(Cl)nc1)NC(=O)c1ccc(OC(F)F)cc1,"inconclusive: 0.326 µM [activator, full curve, poor fit]",
O=C(Cc1ccc(Br)cc1)N/N=C/c1ccc(-c2cccc(C(=O)O)c2)o1,inactive,
CCN1C(=O)/C(=C\C=C\c2ccccc2[N+](=O)[O-])SC1=S,"inconclusive: 14.6 µM [activator, partial curve, poor fit]",
COC(=O)c1ccc(C(=O)Nc2ccc3nc(-c4ccncc4)[nH]c3c2)cc1,inactive,
Cc1cc(Cl)cc(Br)c1OCCNCC(C)O (centres undefined),,inactive: -7.59% [at 9.22 µM]

# Looked up by structure from above (4):
Compound,Potency,re-replication activation
COc1cc(C(=S)N2CCOCC2)ccc1OC(=O)c1ccccc1C,active: 18.4 µM,
CC(=O)OC(C(=O)NC1CCCCC1)c1ccc(C#N)cc1 (centres undefined),inactive,
CN(CC(=O)N1CC=C(c2ccccc2)CC1)S(=O)(=O)c1ccc2c(c1)c(=O)n(C)c(=O)n2C,inactive,
O=C(NCc1ccccc1)/C(NC(=O)c1ccccc1)=C(/Sc1ccccn1)c1ccccc1,inactive,

# Further structures

Compound,Potency,re-replication activation
Cc1ccc(NC(=O)Cc2nc(CN(C)CC(=O)Nc3ccc(C)cc3)cs2)cc1,inactive,
COc1ccc(C(C)=O)cc1COc1cccnc1[N+](=O)[O-],"inconclusive: 20.6 µM [activator, single point]",
CC(C)(C)c1ccc(/C=C/C(=O)Nc2ccncc2)cc1,"inconclusive: 18.4 µM [activator, single point]",
CCOc1ccccc1-c1nc(CN2CCN(C(=O)c3ccco3)CC2)c(C)o1,inactive,
CCN(CC(=O)Nc1ccccc1C(F)(F)F)C(=O)CN1C(=O)NC2(CCCC2)C1=O,inactive,
FC(F)(F)c1ccccc1-n1c(-c2cnccn2)n[nH]c1=S,inactive,
CC(=O)OCC1=C(C(=O)O)N2C(=O)C(NC(=O)c3ccc(F)cc3)C2SC1 (centres undefined),"inconclusive: 16.4 µM [activator, partial curve, poor fit]",
COc1cc(C2NC(=S)NC(c3ccccc3)=C2C(C)=O)cc(Cl)c1OCC(=O)O (centres undefined),inactive,
N#Cc1cc2c(=O)n3ccccc3nc2n(CCCn2ccnc2)c1=N,active: 14.6 µM,
N#Cc1cccc(C(c2nnnn2C2CCCC2)N2CCCCCC2)c1 (centres undefined),"inconclusive: 29.1 µM [activator, single point]",
C/C(=N\NC(=O)c1ccncc1)c1cccc(NC(=O)c2ccc(C(C)(C)C)cc2)c1,inactive,
CC1CCN(S(=O)(=O)c2ccc3c(c2)N(CC(=O)NCCN2C(C)CCCC2C)C(=O)CS3)CC1 (centres undefined),inactive,
CN(C)c1cc(-c2ccc(Cl)cc2Cl)oc(=O)c1Cl,"inconclusive: 0.0259 µM [activator, full curve]",
O=C(O)CC1COc2ccccc2N1C(=O)c1ccccc1Cl (centres undefined),"inconclusive: 23.1 µM [activator, partial curve, poor fit]",
O=C1CC(Sc2nnnn2-c2ccccc2)C(=O)N1c1cccc(Cl)c1 (centres undefined),"inconclusive: 4.61 µM [activator, single point]",
CCC(=O)Nc1ccc(C(=O)NNC(=O)COc2cccc(C)c2)cc1,inactive,
CN(CC(=O)Nc1ccc(F)cc1)C(=O)COC(=O)c1cc([N+](=O)[O-])ccc1N1CCOCC1,"inconclusive: 29.1 µM [activator, partial curve, poor fit]",
O=C1N=C(N2CCCCC2)SC1=C1CCCCC1,inactive,
Cc1noc(C)c1COc1ccc(CC(=O)NCc2ccccc2)cc1,"inconclusive: 4.61 µM [activator, full curve, poor fit]",
CN(C)C(=S)N=c1ssc(=S)n1Cc1ccco1,"inconclusive: 23.1 µM [activator, single point]",
COc1ccc(/C=C/c2nnc(NC(=O)CSc3ccc(Cl)cc3)s2)cc1,"inconclusive: 20.6 µM [activator, single point]",
COc1cc(C(=O)NC23CC4CC(CC(C4)C2)C3)cc(OC)c1OC,,inconclusive: 26.1% [activator]
COc1ccc(/C=N/NC(=O)c2ccc(Cl)cc2Cl)cc1COC(C)=O,"inconclusive: 29.1 µM [activator, partial curve, poor fit]",

# Source: PubChem BioAssay AID624297 (National Center for Advancing Translational Sciences (NCATS), 2012)
